Drawing on article PMC8403735, this text covers binding for 3 substances.

Amino acid sequences for entries named in this document (tags omitted). A change or cut given only in a name is not applied to a line headed by its entry. Residues count along the entry.
UniProt Q9Z0J4: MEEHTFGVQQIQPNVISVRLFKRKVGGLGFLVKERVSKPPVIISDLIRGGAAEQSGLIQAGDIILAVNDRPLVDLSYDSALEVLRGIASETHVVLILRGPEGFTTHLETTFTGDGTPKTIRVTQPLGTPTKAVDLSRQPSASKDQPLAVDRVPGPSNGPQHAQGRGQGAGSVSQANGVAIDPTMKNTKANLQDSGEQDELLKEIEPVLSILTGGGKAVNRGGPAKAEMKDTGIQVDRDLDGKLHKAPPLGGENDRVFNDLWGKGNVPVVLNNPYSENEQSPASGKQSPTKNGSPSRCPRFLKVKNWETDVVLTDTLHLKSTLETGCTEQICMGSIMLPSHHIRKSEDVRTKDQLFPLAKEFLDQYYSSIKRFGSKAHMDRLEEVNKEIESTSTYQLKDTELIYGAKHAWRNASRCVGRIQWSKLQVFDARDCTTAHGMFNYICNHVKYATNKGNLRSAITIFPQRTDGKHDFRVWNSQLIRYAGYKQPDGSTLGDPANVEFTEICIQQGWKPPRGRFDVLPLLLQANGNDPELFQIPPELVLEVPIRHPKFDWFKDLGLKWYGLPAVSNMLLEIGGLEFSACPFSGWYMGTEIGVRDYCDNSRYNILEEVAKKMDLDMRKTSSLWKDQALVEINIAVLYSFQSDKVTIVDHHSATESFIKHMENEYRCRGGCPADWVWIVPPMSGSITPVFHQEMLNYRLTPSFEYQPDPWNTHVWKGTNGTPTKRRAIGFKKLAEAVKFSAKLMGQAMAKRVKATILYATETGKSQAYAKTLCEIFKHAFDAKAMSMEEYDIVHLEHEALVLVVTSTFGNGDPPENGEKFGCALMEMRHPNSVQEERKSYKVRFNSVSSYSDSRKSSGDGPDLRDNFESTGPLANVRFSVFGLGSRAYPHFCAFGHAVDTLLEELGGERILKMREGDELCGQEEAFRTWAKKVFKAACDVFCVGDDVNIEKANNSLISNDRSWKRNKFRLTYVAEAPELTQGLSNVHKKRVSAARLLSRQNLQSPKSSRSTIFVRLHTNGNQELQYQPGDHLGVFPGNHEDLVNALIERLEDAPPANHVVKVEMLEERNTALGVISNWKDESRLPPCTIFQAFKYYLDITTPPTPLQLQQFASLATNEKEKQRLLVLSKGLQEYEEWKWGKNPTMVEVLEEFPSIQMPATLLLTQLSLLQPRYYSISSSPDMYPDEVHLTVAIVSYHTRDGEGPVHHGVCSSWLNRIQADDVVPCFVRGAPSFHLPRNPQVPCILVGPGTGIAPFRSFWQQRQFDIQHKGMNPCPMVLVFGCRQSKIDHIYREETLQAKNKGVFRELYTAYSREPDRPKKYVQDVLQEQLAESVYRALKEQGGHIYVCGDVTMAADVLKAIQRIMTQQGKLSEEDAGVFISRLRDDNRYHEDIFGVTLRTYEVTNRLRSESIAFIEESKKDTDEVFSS
UniProt Q9D3A8: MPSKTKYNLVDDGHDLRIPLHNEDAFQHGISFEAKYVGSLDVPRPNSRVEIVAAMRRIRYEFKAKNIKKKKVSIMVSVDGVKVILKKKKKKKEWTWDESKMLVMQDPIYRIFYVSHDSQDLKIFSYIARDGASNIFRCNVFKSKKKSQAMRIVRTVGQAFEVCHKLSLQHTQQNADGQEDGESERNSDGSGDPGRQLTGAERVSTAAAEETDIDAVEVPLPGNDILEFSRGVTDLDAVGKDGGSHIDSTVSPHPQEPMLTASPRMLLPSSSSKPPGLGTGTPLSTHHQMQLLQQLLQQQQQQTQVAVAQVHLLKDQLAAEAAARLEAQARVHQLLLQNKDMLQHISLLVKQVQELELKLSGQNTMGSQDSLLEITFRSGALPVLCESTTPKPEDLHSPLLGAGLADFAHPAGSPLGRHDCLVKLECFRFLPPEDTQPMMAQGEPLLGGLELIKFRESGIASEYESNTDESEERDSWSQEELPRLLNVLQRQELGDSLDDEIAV
mCherry.3xFLAG.NOS1AP_(396-503) (virally overexpressed carboxyterminus of murine NOS1AP): residues 396-503 of Q9D3A8

No constants are given. Whether binding was seen depends on the method and setting. Binding seen in cells or lysates may run through a third protein. Some entries that bind do so weakly or less than the wild type.

The target in this test is neuronal nitric oxide synthase (mouse (endogenous in dorsal hippocampus)) (UniProt Q9Z0J4). In words: co-IP; nNOS antibody (mouse monoclonal A-11, 2.5 ug/ml) added to dorsal hippocampus lysates (low-salt buffer, protease inhibitors, 1 mM DTT, 0.5% Igepal CA-630), 2 h at 4 °C, protein-A resin; Western blot for nNOS, NOS1AP and PSD-95; mice injected with rAAV for mCherry (control), NOS1AP or NOS1AP_(396-503).
As for “endogenous nitric oxide synthase 1 adaptor protein (from UniProt Q9D3A8 1-503)”, the binding result is listed as “binds”.

Turning to “mCherry.3xFLAG.NOS1AP (virally overexpressed murine full-length NOS1AP) (from UniProt Q9D3A8-1 1-503)”, the binding result was “binds”.

As to “mCherry.3xFLAG.NOS1AP_(396-503) (virally overexpressed carboxyterminus of murine NOS1AP) (from UniProt Q9D3A8-1 396-503) (domain or fragment)”, the binding entry is “binds”.
